No constants are given. Whether binding was seen depends on the method and setting. Some results given as binding are weak or reduced against the parent protein; the word gives no strength.

By UniProt entry, the sequences of proteins in these tests, tags left out. Where a name states a change or a piece, a line headed by the entry shows the natural chain unless it says otherwise.
UniProt Q6UWB1: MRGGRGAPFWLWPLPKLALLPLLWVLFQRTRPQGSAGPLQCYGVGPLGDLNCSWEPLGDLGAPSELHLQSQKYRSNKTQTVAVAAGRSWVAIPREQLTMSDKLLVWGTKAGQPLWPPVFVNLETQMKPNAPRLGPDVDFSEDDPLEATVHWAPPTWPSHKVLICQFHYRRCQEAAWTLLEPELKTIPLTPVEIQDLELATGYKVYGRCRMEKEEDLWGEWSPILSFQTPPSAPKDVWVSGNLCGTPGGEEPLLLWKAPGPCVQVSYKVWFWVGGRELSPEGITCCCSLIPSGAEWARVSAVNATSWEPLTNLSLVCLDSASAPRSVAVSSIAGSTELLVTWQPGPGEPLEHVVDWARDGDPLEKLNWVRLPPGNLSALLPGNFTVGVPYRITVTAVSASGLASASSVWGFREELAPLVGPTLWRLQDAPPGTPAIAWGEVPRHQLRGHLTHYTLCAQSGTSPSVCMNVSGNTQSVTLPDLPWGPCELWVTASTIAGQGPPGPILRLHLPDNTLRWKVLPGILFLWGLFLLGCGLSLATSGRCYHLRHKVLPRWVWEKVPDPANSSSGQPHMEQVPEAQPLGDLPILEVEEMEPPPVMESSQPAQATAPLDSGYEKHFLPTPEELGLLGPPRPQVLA

Among the data in patent US20260055176A1 are binding values, retold here.

The target in the assay is human IL-27RA (WSX-1) (human) (UniProt Q6UWB1). The assay can be described thus: hybridoma from Harbour H2L2 mice immunised with human WSX-1 DNA; no binding data printed.

B1: 8B11 (antibody, IgG1, V domains shown)
VH: QVQLQQSGPGLVKPSQTLSLTCAISGYSVSSNNAAWNWIRQSPSRGLEWLGRTYYRSKWYNDYALSVKSRVTINPDTSKNQFSLHLNPVTPEDTALYFCARGLPMVPFDSWGQGTLVTVSS
VL: DIQMTQSPSTLSASVGDRVTITCRASQSISSWLAWYQQKPGKAPKLLIYKASSLESGVPSRFSGSGSGTEFTLTISSLQPDDFATYFCQQYDSFSMYTFGQGTKLEIK
On to B1, for which the binding result is recorded as “binds”.
